# Measurements from paper doi:10.1101/2025.03.16.643548.
# Results are given in words; binding and its absence hold for the method and conditions named. Where a sequence is shown, tags or fusion partners need not be part of it.
# Molecular target: MUC2C-NC (truncated MUC2 C-terminal protein from the VWCN domain to the cysteine-knot) (human)
# Test: cross-linking
binder,measurement,value
"EatA lacking the DUF domain (residues 514 to 616 replaced by eight His residues) (enzyme, UniProt Q84GK0 57-513; Q84GK0 617-1364) ATVNADISYQTFRDFAENKGAFIVGASNINIYDKNGVLVGVLDKAPMPDFSSATMNTGTLPPGDHTLYSPQYVVTAKHVNGSDIMSFGHIQNNYTVVGENNHNSLDIKIRRLNKIVTEVAPAEISSVGAVNGAYQEGGRFKAFYRLGGGLQYIKDKNGNLTPVYTNGGFLTGGTISALSSYNNGQMITAPTGDIFNPANGPLANYLNKGDSGSPLFAYDSLDKKWVLVGVLSSGSEHGNNWVVTTQDFLHQQPKHDFDKTISYDSEKGSLQWRYNKNSGVGTLSQESVVWDMHGKKGGDLNAGKNLQFTGNNGEIILHDSIDQGAGYLQFFDNYTVTSLTDQTWTGGGIITEKGVNVLWQVNGVNDDNLHKVGEGTLTVNGKGVNNGGLKVGDGTVILNQRPDDNGHKQAFSSINISSGRATVILSDANQVNPDKISWGYRGGTLDLNGNNVNFTRLHHHHHHHHQPYMFHGQLNGYMDVNIHPLSGKDVLTLDGSVNLPEGVITKKSGTLIFQGHPVIHAGMTTSAGQSDWENRQFTMDKLRLDAATFHLSRNAHMQGDISAANGSTVILGSSRVFTDKNDGTGNAVSSVEGSSIATTAGDQSYYSGNVLLENHSSLEVRENFTGGIEAYDSSVSVTSQNAIFDHVGSFVNSSLLLEKGAKLTAQSGIFTNNTMKIKENASLTLTGIPSVGKPGYYSPVTSTTEGIHLGERASLSVKNMGYLSSNITAENSAAIINLGDSNATIGKTDSPLFSTLMRGYNAVLQGNIMGPQSSVNMNNALWHSDRNSELKELKANDSQIELGVRGHFAKLRVKELIASNSVFLVHANNSQADQLNVTDKLQGSNNTILVDFFNKAANGTNVTLITAPKGSDENTFKAGTQQIGFSNITPEIRTENTDTATQWVLTGYQSVADARASKIATDFMDSGYKSFLTEVNNLNKRMGDLRDSQGDAGGWARIMNGTGSGESGYRDNYTHVQIGADRKHELNGIDLFTGALLTYTDNNASSQAFSGKTKSLGGGVYASGLFESGAYFDLIGKYLHHDNRYTLNFASLGERSYTSHSLYAGAEIGYRYHMSENTWVEPQMELVYGSVSGKSFNWKDQGMQLSMKDKDYHPLIGRTGVDVGRAFSGDTWKVTVRAGLGYQFDLLANGETVLQDASGKKHFKGEKDSRMLMNVGTNVEVKDNMRFGLELEKSAFGRYNIDNSINANFRYYF",binding,no binding
